By UniProt entry, the sequences of proteins in these tests, tags left out. Where a name states a change or a piece, a line headed by the entry shows the natural chain unless it says otherwise.
UniProt P39938: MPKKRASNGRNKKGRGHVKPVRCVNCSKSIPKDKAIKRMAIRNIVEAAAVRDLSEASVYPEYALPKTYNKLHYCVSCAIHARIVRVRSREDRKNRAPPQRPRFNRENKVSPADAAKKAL

In PMC4161973:

Experiments:
Assay in all cases: co-IP + affinity purification with mass spectrometry; tandem affinity purification of pre-ribosomal particles by TAP-tagged baits from yeast; Calmodulin-eluates analysed by Western with eS26 antibodies and by SRM-MS
Enp1-TAP (S. cerevisiae) = molecular target: T1, Enp1-TAP (S. cerevisiae) (UniProt P38333)
T1 sequence: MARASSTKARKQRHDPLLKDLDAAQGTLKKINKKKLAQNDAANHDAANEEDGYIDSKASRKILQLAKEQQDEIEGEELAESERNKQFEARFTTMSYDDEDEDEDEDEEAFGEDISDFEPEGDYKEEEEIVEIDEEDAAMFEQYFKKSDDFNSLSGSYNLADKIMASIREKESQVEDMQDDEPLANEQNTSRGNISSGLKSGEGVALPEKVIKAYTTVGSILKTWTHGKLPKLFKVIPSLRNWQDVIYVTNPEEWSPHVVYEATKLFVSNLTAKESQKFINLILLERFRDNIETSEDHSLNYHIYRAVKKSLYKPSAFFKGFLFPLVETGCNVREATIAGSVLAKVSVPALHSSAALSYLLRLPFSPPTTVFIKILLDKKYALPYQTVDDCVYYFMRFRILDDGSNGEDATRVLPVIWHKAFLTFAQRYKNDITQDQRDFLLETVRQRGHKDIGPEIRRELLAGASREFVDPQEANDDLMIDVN

Noc4-TAP (S. cerevisiae) = molecular target: T2, Noc4-TAP (S. cerevisiae) (UniProt Q06512)
T2 sequence: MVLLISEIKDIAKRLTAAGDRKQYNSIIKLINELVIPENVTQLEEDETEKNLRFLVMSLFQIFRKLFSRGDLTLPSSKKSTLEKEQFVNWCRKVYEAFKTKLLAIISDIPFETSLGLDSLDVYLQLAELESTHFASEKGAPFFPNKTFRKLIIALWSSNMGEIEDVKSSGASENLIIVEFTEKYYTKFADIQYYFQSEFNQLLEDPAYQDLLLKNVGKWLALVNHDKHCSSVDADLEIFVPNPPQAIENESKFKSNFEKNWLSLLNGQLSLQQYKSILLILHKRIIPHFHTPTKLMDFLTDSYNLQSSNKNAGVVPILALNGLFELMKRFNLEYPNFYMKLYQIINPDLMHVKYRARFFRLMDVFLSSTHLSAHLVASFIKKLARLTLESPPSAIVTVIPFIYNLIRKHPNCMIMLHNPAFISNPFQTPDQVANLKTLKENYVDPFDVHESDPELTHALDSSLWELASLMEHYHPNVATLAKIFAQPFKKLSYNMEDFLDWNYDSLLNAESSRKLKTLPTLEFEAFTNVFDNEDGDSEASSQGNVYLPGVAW

Asc1-TAP (S. cerevisiae) = molecular target: T3, Asc1-TAP (S. cerevisiae) (UniProt P38011)
T3 sequence: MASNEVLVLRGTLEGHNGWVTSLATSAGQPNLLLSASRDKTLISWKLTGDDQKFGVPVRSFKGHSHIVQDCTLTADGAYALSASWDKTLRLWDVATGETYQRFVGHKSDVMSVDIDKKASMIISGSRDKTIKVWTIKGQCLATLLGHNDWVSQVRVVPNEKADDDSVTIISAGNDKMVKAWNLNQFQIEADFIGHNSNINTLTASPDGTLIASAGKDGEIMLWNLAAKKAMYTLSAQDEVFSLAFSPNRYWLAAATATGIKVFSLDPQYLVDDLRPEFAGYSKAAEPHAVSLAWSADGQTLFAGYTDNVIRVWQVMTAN

binding (Enp1-TAP (S. cerevisiae)): binds
binding (Noc4-TAP (S. cerevisiae)): binds
binding (Asc1-TAP (S. cerevisiae)): binds
Substance: eS26 (yeast Rps26), endogenous (from UniProt P39938)

These are yes or no findings as the source states them, for the method shown. Binding seen in cells or lysates may run through a third protein. Here binding means that the protein was enriched with, or labelled near, the bait; the list need not be complete.
